Measurements taken from PMC7984827, “A high-content AlphaScreen™ identifies E6-specific small molecule inhibitors as potential therapeutics for HPV^+ head and neck squamous cell carcinomas” (Oncotarget, 2021).
Results are given in words; binding and its absence hold for the method and conditions named. Some binding calls cover weakened binding; strength is not graded here.

Chains of the proteins cited; added tags and fusions are not shown.
UniProt Q14790: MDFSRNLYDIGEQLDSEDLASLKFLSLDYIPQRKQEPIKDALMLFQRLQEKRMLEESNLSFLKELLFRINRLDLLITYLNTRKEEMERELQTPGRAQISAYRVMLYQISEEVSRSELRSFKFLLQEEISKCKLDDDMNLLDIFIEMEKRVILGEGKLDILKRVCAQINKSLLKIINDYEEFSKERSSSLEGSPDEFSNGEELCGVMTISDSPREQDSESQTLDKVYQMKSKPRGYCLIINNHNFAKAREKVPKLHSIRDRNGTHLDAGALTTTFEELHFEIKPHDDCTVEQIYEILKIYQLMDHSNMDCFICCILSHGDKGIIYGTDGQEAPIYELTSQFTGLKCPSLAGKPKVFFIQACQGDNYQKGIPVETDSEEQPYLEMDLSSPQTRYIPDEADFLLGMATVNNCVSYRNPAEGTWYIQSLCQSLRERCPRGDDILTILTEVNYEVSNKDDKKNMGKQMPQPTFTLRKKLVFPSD
UniProt P03126: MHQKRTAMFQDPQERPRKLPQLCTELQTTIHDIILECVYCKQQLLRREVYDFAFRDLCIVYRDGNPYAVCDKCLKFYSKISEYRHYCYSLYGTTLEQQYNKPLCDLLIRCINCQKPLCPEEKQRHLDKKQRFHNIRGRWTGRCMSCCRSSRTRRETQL

Target: His6-Caspase 8 (human Caspase 8) (human) (UniProt Q14790)
Assay: AlphaScreen or HTRF; both purified

GST-E6 (full-length HPV E6) (from UniProt P03126 1-158)
binding: binds
